Experimental data: PubChem BioAssay AID248 (DTP/NCI, 2004)
The list shows only some results of the screen, not a fair sample: it gathers tests that were run many times, whatever their T/C, doses with no T/C, and many T/C values between a quarter and a half above the control. Further doses and runs are listed elsewhere. T/C is the treated group as % of the vehicle group. Some doses have a count of surviving animals in place of a T/C: the source holds a T/C of zero for them, seemingly a mark for toxic or unscored doses. Some survivor counts are full or nearly so, which does not show that the dose was tolerated: the source hardly ever lists a survival T/C far under the control, and the zero likely stands for such cases as well. Counts of survivors are from the toxicity check (mostly the fifth day) where no day follows; animals may have died later. Schedules are NCI's codes, read here as Q, the interval in days (D) or hours (H), X, the number of doses. Some schedules carry Z or #; the key to these is not given. Where survival is the endpoint, the PubChem record calls one and a half times the control and up active, and a quarter to a half above the control has no call in these data; cut-offs in other NCI protocols can differ.

System: L1210 leukemia ip in BDF1 mice, survival T/C
Assay: NCI In Vivo Anticancer Drug Screen. Data for tumor model L1210 Leukemia (intraperitoneal) in B6D2F1 (BDF1) mice
Details: T/C endpoint: mean survival time, higher T/C = longer survival
[1] = dose: 400.0 mg/kg/injection, schedule: Q04DX003 (ip), vehicle: saline with Tween-80

## CC[n+]1cc(-c2ccc(NC(=O)/C=C\c3ccc(C(=O)Nc4ccc(-c5c[n+](CC)c(N)nc5N)cc4)cc3)cc2)c(N)nc1N
dose: 0.53 mg/kg/injection, schedule: Q01DX009 (ip), vehicle: saline
  T/C: 128 % of control
dose: 0.8 mg/kg/injection, schedule: Q01DX009 (ip), vehicle: saline
  T/C: 130 % of control
dose: 1.2 mg/kg/injection, schedule: Q01DX009 (ip), vehicle: saline
  T/C: 134 % of control
dose: 1.8 mg/kg/injection, schedule: Q01DX009 (ip), vehicle: saline
  T/C: 136 % of control
dose: 1.8 mg/kg/injection, schedule: Q01DX015 (ip), vehicle: saline
  T/C: 137 % of control
dose: 4.1 mg/kg/injection, schedule: Q01DX015 (ip), vehicle: saline
  T/C: 138 % of control
dose: 6.2 mg/kg/injection, schedule: Q01DX015 (ip), vehicle: saline
  T/C: 147 % of control
dose: 22.0 mg/kg/injection, schedule: Q01DX015 (ip), vehicle: saline
  T/C: 138 % of control
dose: 35.0 mg/kg/injection, schedule: Q01DX015 (ip), vehicle: saline
  survivor count: 6 of 6
dose: 65.0 mg/kg/injection, schedule: Q01DX015 (ip), vehicle: saline
  survivor count: 6 of 6
dose: 100.0 mg/kg/injection, schedule: Q01DX015 (ip), vehicle: saline
  survivor count: 5 of 6
dose: 400.0 mg/kg/injection, schedule: Q01DX001 (ip), vehicle: saline
  survivor count: 4 of 4
dose: 235.0 micrograms/kg/injection, schedule: Q01DX009 (ip), vehicle: saline
  T/C: 127 % of control
dose: 355.0 micrograms/kg/injection, schedule: Q01DX009 (ip), vehicle: saline
  T/C: 137 % of control

## [Cl][Pd][Cl].[NH-]CCN1CC1
dose: 200.0 mg/kg/injection, schedule: Q04DX002 (ip), vehicle: saline
  survivor count: 1 of 3
dose: 400.0 mg/kg/injection, schedule: Q04DX002 (ip), vehicle: saline
  survivor count: 0 of 3

## CN(C)c1ccnc(SCc2ccc(Cl)cc2Cl)n1
dose: 100.0 mg/kg/injection, schedule: Q01DX Z (ip), vehicle: methylcellulose (MC)
  survivor count: 6 of 6
dose: 200.0 mg/kg/injection, schedule: Q01DX Z (ip), vehicle: methylcellulose (MC)
  survivor count: 5 of 6

## Nc1ccc(OCc2ccccc2)cc1
dose: 200.0 mg/kg/injection, schedule: Q01DX009 (ip), vehicle: saline with Tween-80
  survivor count: 2 of 6

## Cc1c(N=Cc2ccccc2)c(=O)n(-c2ccccc2)n1C
dose: 200.0 mg/kg/injection, schedule: Q01DX009 (ip), vehicle: gum acacia
  survivor count: 6 of 6

## C/C(=N/C(=O)NN)c1ccc(Cl)cc1
[1]
  survivor count: 5 of 6

## N=C(CNC1CC2CCC1C2)SS(=O)(=O)O (configuration not stated)
dose: 25.0 mg/kg/injection, schedule: Q04DX002 (ip), vehicle: Klucel (hydroxypropylcellulose) (HPC)
  survivor count: 2 of 3
dose: 50.0 mg/kg/injection, schedule: Q04DX002 (ip), vehicle: Klucel (hydroxypropylcellulose) (HPC)
  survivor count: 0 of 3
dose: 100.0 mg/kg/injection, schedule: Q04DX002 (ip), vehicle: Klucel (hydroxypropylcellulose) (HPC)
  survivor count: 0 of 3
dose: 200.0 mg/kg/injection, schedule: Q04DX002 (ip), vehicle: Klucel (hydroxypropylcellulose) (HPC)
  survivor count: 0 of 3
dose: 400.0 mg/kg/injection, schedule: Q04DX002 (ip), vehicle: Klucel (hydroxypropylcellulose) (HPC)
  survivor count: 0 of 3

## CCCCCCCCCCOC(CN)C(Cl)(Cl)Cl (configuration not stated)
dose: 50.0 mg/kg/injection, schedule: Q01DX009 (ip), vehicle: saline with Tween-80
  survivor count: 3 of 6
dose: 100.0 mg/kg/injection, schedule: Q04DX003 (ip), vehicle: saline with Tween-80
  survivor count: 2 of 6
dose: 200.0 mg/kg/injection, schedule: Q04DX003 (ip), vehicle: saline with Tween-80
  survivor count: 1 of 6
[1]
  survivor count: 0 of 6

## CN(C)Cc1cccc2ccccc12
dose: 100.0 mg/kg/injection, schedule: Q01DX009 (ip), vehicle: Klucel (hydroxypropylcellulose) (HPC)
  survivor count: 0 of 3
dose: 200.0 mg/kg/injection, schedule: Q01DX009 (ip), vehicle: Klucel (hydroxypropylcellulose) (HPC)
  survivor count: 0 of 3
